The labels stand for the following.
B1: il10ra_site1_sap_17_mot_HHH_b2_02267_000000141_0001_1_20_H_._HHH_b2_04031_af2_0001_0000600017_0000002_0_0001_af2pred_0001 (protein)
chain: SSSSDEEEEEALRLLIRLFRLLEEGDEEEARELAEEARRVAEELNDPLTRAAIKLMLEHLSSSSS
B2: il10ra_site1_sap_17_mot_HHH_b2_00076_000000055_0001_40_55_H_._HHH_b1_07763_af2_0001_0000100002_0000002_0_0001 (protein)
chain: SSSSDLEEEVRELLEEAKRIEDPEEVEELLLEAQAIAARARDPRLSHEIIKVYAELNQELSSSSS
B3: il10ra_site1_normal_mot_HHH_b1_05431_000000021_0001_1_19_H_._HHH_b1_05337_af2_0001_0000200008_0000001_0 (protein)
chain: SSSSSDEVFELLRELFELAQRGDEEEFEEVYRRIEELIEELGNFVFEWSLRRIEHNFRFNSSSSS
B4: il10ra_site1_normal_mot_8756ee2cf497b5429c717dfc0c0bcfd6_0001_000000186_0001_1_13_H_._HHH_b2_00465_af2_0001_0000300014_0000002_0_af2pred_0001 (protein)
chain: SSSSNEELEELFELIEKAAELLHNGNPEEAKEVLEEAEELARELNNLAAEAQLRFLKKIVDSSSS
B5: il10ra_site1_normal_mot_HHH_b2_06795_000000133_0001_42_56_H_._HHH_b2_02252_0001_0000200027_0000001_0_af2pred_0001 (protein)
chain: SSSSDREEELLERLLRALERLAELGDEERFEALARFIKRLAKDANDPEIERRVEEIEERVHSSSS
B6: il10ra_site1_sap_22_mot_HHH_b2_02633_000000127_0001_22_39_H_._HHH_b1_07594_0001_0001400080_0000001_0_0001 (protein)
chain: SSSSSDEEVRELLEEAEELAEEGNPREAMRVLAEAVRLAFERGDEEALQLVWELVQRLAESSSSS
B7: il10ra_site1_normal_mot_HHH_b2_02497_000000220_0001_1_20_H_._HHH_b2_03338_0001_0000100003_0000001_0 (protein)
chain: SSSSDEDEEEVERLLEEAKESDDVDESYELIRKAIEVAAESNNQELFRLIMEVIREWLRNSSSSS
B8: il10ra_site1_sap_22_mot_HHH_b1_05609_af2_000000134_0001_1_18_H_._HHH_b1_04617_af2_0001_0000300045_0000002_0_0001 (protein)
chain: SSSSDEREELEELLEEIERLLEEGDPERALELLQEALRFAFQLGDEEILQRLWRLAKEVASSSSS
B9: il10ra_site1_normal_mot_HHH_b2_04275_000000272_0001_20_36_H_._HHH_b2_04520_0001_0000200024_0000001_1_af2pred_dldesign_0_af2pred (protein)
chain: SSSSSPQEELVRLVREIAELLSEGKLEEAKKLLEKAKELAEKLGDKVTLRTLEYLEKQLESSSSS
B10: il10ra_site1_sap_16_mot_HHH_b2_06643_000000103_0001_1_18_H_._HHH_b2_07694_0001_0000100008_0000001_0_0001_af2pred_0001 (protein)
chain: SSSSSSEEEELAELALRLLVEALQHGDPELREEIKELIEEAEKVGDERVVRLLRAALRALSSSSS
B11: il10ra_site1_sap_11_mot_HHH_b1_06789_af2_000000041_0001_1_20_H_._HHH_b2_05339_af2_0001_0000600013_0000001_0_0001_af2pred_0001 (protein)
chain: SSSSDEERKEVEELLEEAEHIEDPLERAYVLSKAYALAVEIRDPEAERLVKEVARRLSERSSSSS
B12: il10ra_site1_sap_18_mot_HHH_b2_00984_000000042_0001_1_20_H_._HHH_b2_04529_0001_0000100002_0000002_0_0001 (protein)
chain: SSSSDEEEIEEVLELAERLQELAEERGNRALAWLVRQALKALRLAKDPHALRMLKSLIRLNSSSS
B13: il10ra_site1_sap_10_mot_HHH_b2_00943_af2_000000149_0001_1_17_H_._HHH_b1_00350_0002_0000200016_0000002_0_0001 (protein)
chain: SSSSSEEEKRLEELIEEAEELLERGNPQEAIRVLREAVRIAYRANDAELLRQLWELIRKVASSSS
B14: il10ra_site1_normal_mot_HHH_b1_05056_000000217_0001_1_20_H_._HHH_b2_00793_0001_0000200005_0000001_0 (protein)
chain: SSSSSSSEEEEVEELLEEAREIEDEEEVSRLLQEAAHVALRAQNQELLQLVWEVVKELSSSSSSS
B15: il10ra_site1_sap_17_mot_HHH_b2_00984_000000042_0001_1_20_H_._263437940a0803172d72c1f0c28c3a46_0001_0001_0000500012_0000001_0_0001_af2pred_0001 (protein)
chain: SSSSDKEKAFRLYIEAYIALAQGNPEEAEELLREALEIAKELGDEALIRAIERLLELVERKSSSS
B16: il10ra_site1_sap_19_mot_HHH_b2_01032_000000296_0001_1_18_H_._HHH_b2_05460_af2_0001_0000100004_0000002_0_0001_af2pred_0001 (protein)
chain: SSSSSSDLEQTARAQLWFARLIENPDARRIALEFAEEVAEEAGDEELLKEIREELEEVGSSSSSS
B17: il10ra_site1_sap_18_mot_65b8060e20531850bca9f2e11f97d954_0001_af2_000000137_0001_17_31_H_._HHH_b1_01433_0001_0000100004_0000001_0_0001_af2pred_0001 (protein)
chain: SSSSDVEERVEELEQEVRELLENGNPHEALKVIREIARLAAENNDDEALEIALELVRLVFSSSSS
B18: il10ra_site1_sap_21_mot_HHH_b2_02337_000000026_0001_38_52_H_._HHH_b1_05241_af2_0001_0000100004_0000001_1_0001 (protein)
chain: SSSSSDEEQRALEIFQEAFRALLRGNPEEAEELLREAEELAREIGDERLLEMIEDLKRANSSSSS
B19: il10ra_site1_sap_36_mot_0eddeacbb14b769e73e254714f31e2f9_0001_af2_000000203_0001_37_51_H_._HHH_eva_0267_0001_0000500013_0000002_0_0001 (protein)
chain: SSSSSEEEKKLEELLEELEELVKEGDRERIAKLAQEVLRLAFQLSDEEALRAVWRVMRRLSSSSS
B20: il10ra_site1_normal_mot_HHH_b1_03859_af2_000000004_0001_44_57_H_._HHH_b2_05934_af2_0001_0000200016_0000001_0_af2pred_0001 (protein)
chain: SSSSDDEEEIARSAVRAVEFLLELNDEEKFRLALKDAKATAKTLGDEEVEKKLREIEERLSSSSS
B21: il10ra_site1_sap_17_mot_39ab2cb694c8b9c1dc7e65c0d672c93e_0001_000000036_0001_53_65_H_._HHH_b2_01477_0001_0000600029_0000002_0_0001 (protein)
chain: SSSSDRHREIYELLRELAEAVHENDEELAEELIEEIRRLIEEAGDWAMRFALEVSKEALDSSSSS
B22: il10ra_site1_normal_mot_HHH_b2_02757_000000230_0001_1_19_H_._HHH_b2_02010_af2_0001_0000400010_0000001_0 (protein)
chain: SSSSSDRLEELEEEIEKAIEEGDPELAIQLLWEAIRLAVELGDREVLHHLFELLREVLNSSSSSS
B23: il10ra_site1_normal_mot_HHH_b2_06795_000000133_0001_42_56_H_._HHH_b2_07010_0002_0000200015_0000002_0 (protein)
chain: SSSSNAEEAARFLLEMAKRLLELGDPERARQALRFAEAAAKYAGDEELLREIEELLEELNSSSSS
B24: il10ra_site1_normal_mot_HHH_b1_04100_af2_000000180_0001_1_19_H_._HHH_b1_06500_0001_0000100003_0000001_1_af2pred_0001 (protein)
chain: SSSSSDLAEKAIRILLRAVKELEDPERARLALEDAKFAAENANNPELQEEIERLLEELERSSSSS

This is one part of the list.

The target in this experiment is il10ra, Q13651. The experiment can be described thus: yeast display titration.
Regarding B1, the “apparent Kd” value was “inactive: no binding seen”.

As for B2, the “apparent Kd” value is “inactive: no binding seen”.

For the molecule B3, the “apparent Kd” value is “inactive: no binding seen”.

For B4, the “apparent Kd” value is “inactive: no binding seen”.

Take B5: the “apparent Kd” value was “inactive: no binding seen”.

For the molecule B6, the “apparent Kd” value was “inactive: no binding seen”.

In the case of B7, the “apparent Kd” value is “inactive: no binding seen”.

B8: the “apparent Kd” value was “inactive: no binding seen”.

As to B9, the “apparent Kd” value was “inactive: no binding seen”.

B10: the “apparent Kd” value is “inactive: no binding seen”.

As to B11, the “apparent Kd” value is “inactive: no binding seen”.

For B12, the apparent Kd was inactive: > 1410 nM.

Turning to B13, the “apparent Kd” value is “inactive: no binding seen”.

As to B14, the “apparent Kd” value is “inactive: no binding seen”.

As to B15, the “apparent Kd” value was “inactive: no binding seen”.

For B16, the “apparent Kd” value is “inactive: no binding seen”.

With B17, the “apparent Kd” value was “inactive: no binding seen”.

In the case of B18, the “apparent Kd” value is “inactive: no binding seen”.

As to B19, the “apparent Kd” value was “inactive: no binding seen”.

As for B20, the “apparent Kd” value was “inactive: no binding seen”.

Take B21: the “apparent Kd” value is “inactive: no binding seen”.

With B22, the “apparent Kd” value was “inactive: no binding seen”.

Turning to B23, the “apparent Kd” value is “inactive: no binding seen”.

On to B24, for which the “apparent Kd” value was “inactive: no binding seen”.

The values are drawn from PMC10163288.
